{"sequences": {"note": "The chains behind the UniProt entries cited, without tags or fusion partners.", "UniProt A5F9C0": "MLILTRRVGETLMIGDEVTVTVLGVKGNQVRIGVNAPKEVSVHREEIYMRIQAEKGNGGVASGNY"}, "source": "paper PMC11633198", "about": "“Vibrio cholerae CsrA controls ToxR levels by increasing the stability and translation of toxR mRNA”", "target": "Vibrio cholerae CsrA (Vibrio cholerae) (UniProt A5F9C0)", "test": "preliminary structural analyses (manuscript in preparation)", "note": "No constants are given. Whether binding was seen depends on the method and setting. Some entries that bind do so weakly or less than the wild type."}
{"substance": "Vibrio cholerae CsrA (from UniProt A5F9C0 1-65)", "values": [{"measurement": "binding", "value": "binds"}]}
